Experimental data taken from patent US12590121B2, “Peptide compound with repetitive sequences” (KING ABDULLAH UNIVERSITY OF SCIENCE AND TECHNOLOGY, priority 2020, dated 2026).
Non-standard residues stand in square brackets, D forms with d. Residues, ends and D or L forms follow the SMILES beside them. Cha = N[C@@H](CC1CCCCC1)C(=O)O

Key:
Filament collapse test = details: 1, 2, 4, 8 and 16 mm gaps
[1] = Printability and shape fidelity assessment (3D bioprinting); details: IZZK 200 layers, 6 mL peptide; IIZK 180 layers, 4 ml peptide

| SMILES | printed filament holding its shape over gaps (Filament collapse test) | height of printed construct achieved [1] |
| --- | --- | --- |
| CC[C@H](C)[C@H](NC(C)=O)C(=O)N[C@@H](CC1CCCCC1)C(=O)N[C@@H](CC1CCCCC1)C(=O)N[C@@H](CCCCN)C(N)=O [IZZK, Ac-Ile-Cha-Cha-Lys-NH2] (Ac-I[Cha][Cha]K-NH2) | without or with only slight sagging | 40 mm |
| CC[C@H](C)[C@H](NC(C)=O)C(=O)N[C@H](C(=O)N[C@@H](CC1CCCCC1)C(=O)N[C@@H](CCCCN)C(N)=O)[C@@H](C)CC [IIZK, Ac-Ile-Ile-Cha-Lys-NH2] (Ac-II[Cha]K-NH2) | without or with only slight sagging | 38 mm |
